Source: paper PMC5903342, “Atorvastatin Downregulates In Vitro Methyl Methanesulfonate and Cyclophosphamide Alkylation-Mediated Cellular and DNA Injuries” (Oxidative Medicine and Cellular Longevity, 2018)

Key:
human lymphocyte = details: human lymphocytes, even at nM concentrations; cited from earlier work
[1] = system: Salmonella enterica serovar typhimurium TA1535; experiment: Antimutagenicity assay (Salmonella/microsome), strain TA1535; type: cell-based; details: TA1535, cotreatment
Source text: (§1) Salmonella enterica serovar typhimurium (S. typhimurium) strains TA100, TA1535, TA104, and TA102 from the authors' laboratory stock were used as described by Maron and Ames in the antimutagenicity assay.
(§2) We carried out the coexposure protocol of the antimutagenicity assay to investigate the potential of the compound to protect against alkylation-mediated genetic mutation in S. typhimurium TA100, TA102, TA104, and TA1535 strains according to Ajith and Soja. The test proceeded both in the absence and presence of a metabolic activation system (4% S9 mix, Aroclor preinduced, from MOLTOX Inc., USA). DMSO 1% served as the negative control. For the assays without metabolic activation, 0.5 mL of a 0.1 mol/L sodium phosphate buffer (pH 7.4) was added, and for the assays in the presence of metabolic activation, 0.5 mL of S9 mix was mixed with a 0.1 mL culture medium (2 × 10^8 cells/mL) plus 0.1 mL of AVA solutions (0–1000 μM) and 0.1 mL MMS (100 μg/plate) in the absence of metabolic activation and CPA (100 μg/plate) in metabolic active conditions. The mixtures were incubated in a shaker at 37°C (preincubation) under light protection. After a total of 60 min of cotreatment, the mixtures were added to and mixed with 2 mL top agar containing 0.05 mmol/L L-histidine and D-biotin for the S. typhimurium strains. Each of these was then spread on a minimal glucose agar (1.5% agar, Vogel-Bonner medium E, containing 2% glucose) plate. After the top agar solidified, the plates were incubated at 37°C for 60–72 h. Each tester strain was assayed in triplicate and repeated at least twice, and the number of revertant colonies was counted for each tester strain and treatment group. The counts of revertant colonies were obtained to build a dose-response curve and calculate the percentage of reduction.

[2] = system: Salmonella enterica serovar typhimurium TA104; experiment: Antimutagenicity assay (Salmonella/microsome), strain TA104; type: cell-based; details: TA104, cotreatment
Source text: as §1, §2

[3] = system: Salmonella enterica serovar typhimurium TA100; experiment: Antimutagenicity assay (Salmonella/microsome), strain TA100 (co-, pre- and posttreatment); type: cell-based
in vitro = type: cell-based; details: human
[4] = system: Salmonella enterica serovar typhimurium TA102; experiment: Antimutagenicity assay (Salmonella/microsome), strain TA102; type: cell-based; details: TA102, cotreatment
Source text: as §1, §2

[5] = system: Salmonella enterica serovar typhimurium TA98 and TA100 strains; details: sodium azide or 4-nitro-o-phenylenediamine, TA98 and TA100, absence of metabolic activation; cited from earlier work
[6] = +S9, CPA (150 μM), atorvastatin 20 μM
[7] = +S9, CPA (150 μM), atorvastatin 100 μM
[8] = +S9, CPA (150 μM), atorvastatin 200 μM
[9] = +S9, CPA (150 μM), atorvastatin 1000 μM
[10] = −S9, MMS (100 μM), atorvastatin 20 μM
[11] = −S9, MMS (100 μM), atorvastatin 100 μM
[12] = −S9, MMS (100 μM), atorvastatin 200 μM
[13] = −S9, MMS (100 μM), atorvastatin 1000 μM

CC(C)c1c(C(=O)Nc2ccccc2)c(-c2ccccc2)c(-c2ccc(F)cc2)n1CC[C@@H](O)C[C@@H](O)CC(=O)O [AVA, atorvastatin]
Genotoxic damage (chromosome aberrations, sister chromatid exchange, comet assay) (human lymphocyte): genotoxic damage
MI (mutagenicity index) [1, 6]: 2.63
MI (mutagenicity index) [1, 7]: 2.60
MI (mutagenicity index) [1, 8]: 2.25
MI (mutagenicity index) [1, 9]: 2.04
MI (mutagenicity index) [1, 10]: 2.00
MI (mutagenicity index) [1, 11]: 1.60
MI (mutagenicity index) [1, 12]: 1.24
MI (mutagenicity index) [1, 13]: 1.16
MI (mutagenicity index) [2, 6]: 2.13
MI (mutagenicity index) [2, 7]: 2.05
MI (mutagenicity index) [2, 8]: 1.99
MI (mutagenicity index) [2, 9]: 1.82
MI (mutagenicity index) [2, 10]: 2.00
MI (mutagenicity index) [2, 11]: 1.94
MI (mutagenicity index) [2, 12]: 1.84
MI (mutagenicity index) [2, 13]: 1.55
Protection against MMS or CPA mutagenicity ([3]; TA100, cotreatment): did not protect
MI (mutagenicity index) ([3]; TA100, cotreatment, +S9, CPA (150 μM), atorvastatin 20 μM): 2.10
MI (mutagenicity index) ([3]; TA100, cotreatment, +S9, CPA (150 μM), atorvastatin 100 μM): 2.06
MI (mutagenicity index) ([3]; TA100, cotreatment, +S9, CPA (150 μM), atorvastatin 200 μM): 2.00
MI (mutagenicity index) ([3]; TA100, cotreatment, +S9, CPA (150 μM), atorvastatin 1000 μM): 1.93
MI (mutagenicity index) ([3]; TA100, cotreatment, −S9, MMS (100 μM), atorvastatin 20 μM): 2.04
MI (mutagenicity index) ([3]; TA100, cotreatment, −S9, MMS (100 μM), atorvastatin 100 μM): 1.98
MI (mutagenicity index) ([3]; TA100, cotreatment, −S9, MMS (100 μM), atorvastatin 200 μM): 1.90
MI (mutagenicity index) ([3]; TA100, cotreatment, −S9, MMS (100 μM), atorvastatin 1000 μM): 1.86
MI (mutagenicity index) ([3]; TA100, posttreatment, +S9, CPA (150 μM), atorvastatin 20 μM): 2.46
MI (mutagenicity index) ([3]; TA100, posttreatment, +S9, CPA (150 μM), atorvastatin 200 μM): 2.34
MI (mutagenicity index) ([3]; TA100, posttreatment, +S9, CPA (150 μM), atorvastatin 1000 μM): 2.30
MI (mutagenicity index) ([3]; TA100, posttreatment, −S9, MMS (100 μM), atorvastatin 20 μM): 2.03
MI (mutagenicity index) ([3]; TA100, posttreatment, −S9, MMS (100 μM), atorvastatin 100 μM): 1.96
MI (mutagenicity index) ([3]; TA100, posttreatment, −S9, MMS (100 μM), atorvastatin 200 μM): 1.87
MI (mutagenicity index) ([3]; TA100, posttreatment, −S9, MMS (100 μM), atorvastatin 1000 μM): 1.84
MI (mutagenicity index) ([3]; TA100, pretreatment, +S9, CPA (150 μM), atorvastatin 20 μM): 1.30
MI (mutagenicity index) ([3]; TA100, pretreatment, +S9, CPA (150 μM), atorvastatin 100 μM): 1.27
MI (mutagenicity index) ([3]; TA100, pretreatment, +S9, CPA (150 μM), atorvastatin 200 μM): 1.11
MI (mutagenicity index) ([3]; TA100, pretreatment, +S9, CPA (150 μM), atorvastatin 1000 μM): 1.03
MI (mutagenicity index) ([3]; TA100, pretreatment, −S9, MMS (100 μM), atorvastatin 20 μM): 1.68
MI (mutagenicity index) ([3]; TA100, pretreatment, −S9, MMS (100 μM), atorvastatin 100 μM): 1.14
MI (mutagenicity index) ([3]; TA100, pretreatment, −S9, MMS (100 μM), atorvastatin 200 μM): 1.11
MI (mutagenicity index) ([3]; TA100, pretreatment, −S9, MMS (100 μM), atorvastatin 1000 μM): 1.02
CC50 at 24 h (in vitro): > 1000 µM
MI (mutagenicity index) [4, 6]: 2.02
MI (mutagenicity index) [4, 7]: 2.00
MI (mutagenicity index) [4, 8]: 1.94
MI (mutagenicity index) [4, 9]: 1.77
MI (mutagenicity index) [4, 10]: 2.10
MI (mutagenicity index) [4, 11]: 2.06
MI (mutagenicity index) [4, 12]: 1.93
MI (mutagenicity index) [4, 13]: 1.77
Antimutagenic (chemopreventive) effect against direct mutagens [5]: significantly inhibited the mutagenic response
